Measurements: the supplement of paper PMC7858590
The full ranking holds about 3,800 compounds; the median of “cell shape (eccentricity) Z-score vs DMSO control” is about 1.1, and the lowest 2% start at about -4.7. This is one part of the list.

test system: human monocyte-derived macrophages (M0); assay: cell shape (eccentricity) Z-score vs DMSO control; higher = more elongated, M2-like morphology; conditions: 20 µM; 24 h; macrophage state: M0 (M-CSF)
Method: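 Primary human monocyte-derived macrophages (M-CSF differentiated, pooled from 4 donors, 5000 cells/well in 384-well plates) were treated with each compound at 20 uM for 24 h, then fixed and stained with phalloidin/DAPI and imaged on an Opera Phenix (6 fields, about 1000 cells/well). Cell eccentricity was measured with CellProfiler, and a Z-score (t-test) was computed against 4 DMSO control wells in the same row. Negative values mean round (M1-like) cells and positive values mean elongated (M2-like) cells; the paper's hit cutoffs are Z <= -4 (M1) and Z >= 6 (M2). Scale: negative = round, M1-like.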

SMILES | cell shape (Z-score)
CCOC(=O)c1cncn1C(C)c1ccccc1 (stereo not drawn) | 1.75
C=C1[C@]23C(=O)O[C@@H](C)[C@]2(O)C(=O)O[C@@]1(C)[C@H](OC(C)=O)C1=C(C)[C@@]2(C=CC(=O)OC2(C)C)CCC13C (stereo partly drawn) | 3.16
O=[N+]([O-])O[C@@H]1CO[C@H]2[C@@H]1OC[C@@H]2O | -0.819
CC(=O)O[C@H]1C[C@H](O[C@H]2[C@@H](O)C[C@H](O[C@H]3[C@@H](O)C[C@H](O[C@H]4CC[C@@]5(C)C(CCC6C5C[C@@H](O)[C@]5(C)[C@@H](C7=CC(=O)OC7)CC[C@]65O)C4)O[C@@H]3C)O[C@@H]2C)O[C@H](C)[C@H]1O[C@@H]1O[C@H](CO)[C@@H](O)[C@H](O)[C@H]1O (stereo partly drawn) | 1.67
COc1cc([C@@H]2c3cc4c(cc3[C@H](O)[C@H]3COC(=O)[C@@H]23)OCO4)cc(OC)c1OC | -0.875
CC12CCC3C(CCC4C(=O)C(=O)CCC43C)C1CCC2=O (stereo not drawn) | 3.82
O=C(Cc1ccc(Cl)c(Cl)c1)N1CCCCC1CN1CCCC1 (stereo not drawn) | -0.746
Cc1ncsc1CCCl | 1.98
Fc1ccc(C(OCCN2CCN(CC=Cc3ccccc3)CC2)c2ccc(F)cc2)cc1 | -4.91
CC1(C)C(=O)C=C[C@@]2(C)C1C(=O)C(=O)[C@]1(C)C2CC[C@@]2(C)[C@H](c3ccoc3)C[C@H]3O[C@]321 (stereo partly drawn) | -0.853
CC(=O)OC[C@]12CCC(C)=CC1O[C@@H]1[C@H](O)[C@@H](O[C@H]3O[C@H](CO)[C@@H](O)[C@H](O)[C@H]3O)[C@@]2(C)C12CO2 (stereo partly drawn) | 1.02
COC(=O)[C@@]12C(=O)C(C)C(=O)[C@]1(C)C(C)=C[C@H]1[C@]3(C)CC[C@H](OC(C)=O)C(C)(C)[C@H]3CC[C@@]12C (stereo partly drawn) | 2.25
CCCCOC(=O)c1ccccc1C(=O)OCCCC | 1.33
C[N+]1(C)C2CC(OC(=O)[C@@H](CO)c3ccccc3)CC1C1OC12 (stereo partly drawn) | 2.03
CC(=O)Oc1ccc(/C=C/c2cc(OC(C)=O)cc(OC(C)=O)c2)cc1 | -1.46
COC(=O)C(c1ccccc1)C1CCCCN1 (stereo not drawn) | -1.01
CCCN(CCC)C1CCc2c(OC)cccc2C1C (stereo not drawn) | 4.87
C[CH2][Hg][S]c1ccccc1C(=O)O | 1.12
CCC(C)C(=O)O[C@H]1[C@H](O)C2C(CN3CC(C)CCC3[C@@]2(C)O)C2C[C@]34O[C@]5(O)C(OC(=O)C(C)(O)CC)CC[C@@]3(C)C5C(OC(C)=O)[C@@H](OC(C)=O)C4[C@@]21O (stereo partly drawn) | -1.3
CC[C@@H](C(=O)[C@@H](C)[C@@H](O)[C@H](C)[C@@H]1O[C@@H]([C@@H](CC)C(=O)O)CC[C@@H]1C)[C@H]1OC2(C=C[C@@H](O)[C@]3(CC[C@@](C)(C4CC[C@](O)(CC)[C@H](C)O4)O3)O2)[C@H](C)C[C@@H]1C (stereo partly drawn) | 1.16
CCN(CC)CCOC1CCC2(C)C(=CCC3C4CCC(=O)C4(C)CCC32)C1 (stereo not drawn) | -2.74
CNc1ccc2oc(C[C@H]3O[C@@]4(CC[C@H]3C)O[C@H]([C@H](C)C(=O)c3ccc[nH]3)[C@H](C)C[C@H]4C)nc2c1C(=O)O | 7.41

SMILES | cell shape (Z-score)
CNc1ccccc1C(=O)O | 1.47
CCN1C[C@]2(C)CC[C@H](OC)[C@@]34C2[C@H](O)C([C@@H]13)[C@@]1(OC)C[C@H](OC)[C@H]2C[C@@H]4[C@@H]1[C@H]2O | 1.73
COC1=CC23CCN(C)[C@H](Cc4cc(OC)c(OC)cc42)C3=CC1=O | 0.695
NCC(CS(=O)(=O)O)c1ccc(Cl)cc1 (stereo not drawn) | 1.7
COC1CC(O[C@H]2CC[C@@]3(C)C(CCC4C3CC[C@]3(C)C(C5=CC(=O)OC5)CCC43O)C2)OC(C)C1OC1OC(COC2OC(CO)C(O)C(O)C2O)C(O)C(O)C1O (stereo partly drawn) | -1.09
C[C@@H]1O[C@@H](O[C@@H]2C=C3CC[C@@H]4C(CC[C@]5(C)[C@@H](c6ccc(=O)oc6)CC[C@]45O)[C@@]3(C)CC2)[C@H](O)[C@H](O)[C@H]1O (stereo partly drawn) | -0.672
CC(=O)O[C@H]1CC[C@]2(C=O)[C@H]3CC[C@]4(C)[C@@H](C5=CC(=O)OC5)CC[C@]4(O)[C@@H]3CC[C@]2(O)C1 | 2.05
O=C1/C(=C/c2ccccc2)C[C@@]2(O)C3Cc4ccc(O)c5c4[C@@]2(CCN3CC2CC2)[C@H]1O5 | 9.69
CN(C)Cc1c[nH]c2ccccc12 | 2.37
COC(=O)N1CCN(C(=O)Cc2ccc(Cl)c(Cl)c2)C(CN2CCCC2)C1 (stereo not drawn) | 0.925
Cc1c(C(=O)Nc2cccc(C(F)(F)F)c2)cc(-c2ccccc2)n1CCCN1CCOCC1 | -0.83
CC(=Cc1csc(C)n1)[C@H]1C[C@@H]2O[C@]2(C)CCC[C@H](C)[C@H](O)[C@@H](C)C(=O)C(C)(C)[C@@H](O)CC(=O)O1 | 0.111
COc1ccc(OC)c(C(O)C(C)NC(C)(C)C)c1 (stereo not drawn) | 0.783
C/C=C(/C)C(=O)OC1CCN2CC=C(COC(=O)C(O)(C(C)O)C(C)(C)O)C12 (stereo not drawn) | 0.798
C[C@]12CC[C@H](O)C[C@H]1CC[C@@H]1[C@@H]2CC[C@]2(C)[C@@H](c3ccc(=O)oc3)C[C@H]3OC132 (stereo partly drawn) | -1.84
C=C(C)C1Cc2c(ccc3c(=O)c4c(oc23)COc2cc(OC)c(OC)cc2-4)O1 (stereo not drawn) | 1.42
C[C@]12CCC(=O)C=C1C=CC1C2CC[C@@]2(C)C1CC[C@@]2(O)CCC(=O)O (stereo partly drawn) | 3.47
O=C1N[C@@H]2C(=C[C@H](O)[C@@H](O)[C@H]2O)c2cc3c(c(O)c21)OCO3 | -0.517
Cc1[nH]c2ccc(O)cc2c1CCN | 3.19
N#Cc1nn(-c2c(Cl)cc(C(F)(F)F)cc2Cl)c(N)c1S(=O)C(F)(F)F (stereo not drawn) | -0.378
O=C1CC=C2C3CC4N(CCC45c4ccccc4N1C25)C/C3=C/CO (stereo not drawn) | 0.376

Single entries from the entries so far:
Entry for NCC(CS(=O)(=O)O)c1ccc(Cl)cc1 (stereo not drawn) under cell shape (Z-score): 1.7
Entry for Cc1ncsc1CCCl under cell shape (Z-score): 1.98
Entry for COC1CC(O[C@H]2CC[C@@]3(C)C(CCC4C3CC[C@]3(C)C(C5=CC(=O)OC5)CCC43O)C2)OC(C)C1OC1OC(COC2OC(CO)C(O)C(O)C2O)C(O)C(O)C1O (stereo partly drawn) under cell shape (Z-score): -1.09
